This test deals with mesothelin (MSLN) (UniProt Q13421). Kind of test: summary of the ELISA EC50 results. For orientation: An ELISA detects its analyte on a solid surface through an enzyme-linked reagent.

The chains behind the UniProt entries cited, without tags or fusion partners. Where a name states a change or a piece, a line headed by the entry shows the natural chain unless it says otherwise. A line that says so, or that is headed by a name, gives the form on record, which may keep a tag or linker.
mesothelin (MSLN) (Q13421, form named): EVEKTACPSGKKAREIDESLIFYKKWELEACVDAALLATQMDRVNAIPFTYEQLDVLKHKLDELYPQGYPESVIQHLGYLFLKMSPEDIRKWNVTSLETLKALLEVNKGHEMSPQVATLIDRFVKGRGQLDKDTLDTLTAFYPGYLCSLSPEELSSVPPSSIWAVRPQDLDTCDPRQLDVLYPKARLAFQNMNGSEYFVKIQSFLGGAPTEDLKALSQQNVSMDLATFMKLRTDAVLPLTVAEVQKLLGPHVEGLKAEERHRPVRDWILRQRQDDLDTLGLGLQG

These are yes or no findings as the source states them, for the method shown. Some binding calls cover weakened binding; strength is not graded here.

B1: CHS5 IgG (antibody, V domains shown)
VH: EVQLVESGGGLVQPGGSLRLSCAASGFTITDRTIHWVRQAPGKGLEWVASIFPTKGVTTYADSVKGRFTISADTSKNTAYLQMNSLRAEDTAVYYCARGRYWMDYWGQGTLVTVSS
VL: DIQMTQSPSSLSASVGDRVTITCRASQDVKEGVAWYQQKPGKAPKLLIDQSHRLYSGVPSRFSGSGSGTDFTLTISSLQPEDFATYYCQQYYAWPSTFGQGTKVEIKR
notes: also called IgG1-CHS5
Consider B1, for which the binding entry is listed as “binds”.

For the origin of these results see patent publication US20240277865A1 (ACADEMIA SINICA, published 2024).
